Experimental findings from publication PMC7819943, “Rice protein-binding microarrays: a tool to detect cis-acting elements near promoter regions in rice” are described below.

The list shows a part of the results.

The assay deals with T1, OsSMF1 (Oryza sativa, UniProt Q6ZLB0 1-436).
T1 sequence: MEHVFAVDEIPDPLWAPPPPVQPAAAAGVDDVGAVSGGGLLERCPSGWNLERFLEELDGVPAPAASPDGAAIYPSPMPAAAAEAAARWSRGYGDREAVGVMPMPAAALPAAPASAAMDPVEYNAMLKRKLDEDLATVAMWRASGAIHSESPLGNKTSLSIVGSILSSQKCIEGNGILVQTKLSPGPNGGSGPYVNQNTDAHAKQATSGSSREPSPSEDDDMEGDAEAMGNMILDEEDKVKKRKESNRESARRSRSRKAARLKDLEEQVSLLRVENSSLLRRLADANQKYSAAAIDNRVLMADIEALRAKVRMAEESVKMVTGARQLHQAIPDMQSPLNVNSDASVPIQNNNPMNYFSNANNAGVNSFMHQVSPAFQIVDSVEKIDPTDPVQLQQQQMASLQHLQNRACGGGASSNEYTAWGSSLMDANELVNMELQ
Briefly: protein-binding microarray (RPBM); PBS, 2% BSA, 51.3 ng/ul salmon testes DNA, 50 uM zinc acetate, 200 nM TF, 25 C, 1 h; high values mean tight binding. The conditions noted are these: protein: recombinant; tags: N-terminal polyhistidine and DsRed monomer fusion (pET32a); chain copies: 2; label: CyDye5-dUTP incorporated in the synthesized complementary strand; 3' TTTTT single-stranded linker to array surface; dsDNA, one strand shown. In short, it runs like this:
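Transcription factors, each fused N-terminally to a polyhistidine tag and DsRed, were expressed in E. coli BL21-CodonPlus and purified on Ni–NTA. A custom Agilent array was made double-stranded by primer extension with Cy5-dUTP and blocked with 2% BSA. It was incubated with 200 nM protein in PBS, 2% BSA, salmon testes DNA and 50 µM zinc acetate at 25 °C for 1 h, then washed. The binding signal is per-feature fluorescence intensity (arbitrary units) read on an Axon 4000B scanner.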
With “AATATTAGTCACACATAAAGTACTATTCATGTATTATCATCGGAGTCACCTAGTGCAG”, the binding signal is 3240 fluorescence intensity (a.u.).
Take “AAGCGAGATGGATGGTATAGGGTGGCGTGGACGGCGGCGGCGGAGTCACCTAGTGCAG”: the binding signal was 4090 fluorescence intensity (a.u.).
In the case of “AGCGGCGCCGGATCAGCCGTGATCACGCCGTCGTGCGCCACGGAGTCACCTAGTGCAG” it was 24800 fluorescence intensity (a.u.); in that of “CTTGCAAGCTTTTGTGAGCTCATCAGCACTGGCATCTCCACGGAGTCACCTAGTGCAG”, 3400 fluorescence intensity (a.u.).
In the case of “TTTTCGGAGATAAACGTGGAGTTATATCCAGTATTGCGGTCGGAGTCACCTAGTGCAG” it was 4020 fluorescence intensity (a.u.); in that of “GTCGCCGCACACGCCACAGTCGTCGTTGCACACACGCGCCCGGAGTCACCTAGTGCAG”, 3820 fluorescence intensity (a.u.).
As for “GCCACAATAAAATATTATCCACATATGGCAGTGTTCGTTTCGGAGTCACCTAGTGCAG”, the binding signal is 3360 fluorescence intensity (a.u.).
Next, “GGTCCCTCAGCGGTTTTGGCTGACGTGGCGCATACGTGGCCGGAGTCACCTAGTGCAG”: 51700 fluorescence intensity (a.u.).
Next, “TATATATACTCATCGTGACACATGGTAAGAGCTTACTAAGCGGAGTCACCTAGTGCAG”: 3700 fluorescence intensity (a.u.).
On to “CCTCAACATATGGGCTGACACGACACGCCTGTGTGGTGAGCGGAGTCACCTAGTGCAG”, for which the binding signal is 7110 fluorescence intensity (a.u.).
In the case of “GCCGCCGGCGAGAGGCGTTCCGGTCGAGGTCGAGGTCGAGCGGAGTCACCTAGTGCAG” it was 3210 fluorescence intensity (a.u.); in that of “TGGCCGCTTCGCGCCATGACACGGCGCCGCTCTGACCGCCCGGAGTCACCTAGTGCAG”, 6130 fluorescence intensity (a.u.).
In the case of “CTATCGTGCCATGCGCCTATGCCACGCGGTGCCCGCGCCGCGGAGTCACCTAGTGCAG” it was 4020 fluorescence intensity (a.u.); in that of “GCTTCGGCGCGCGCGCCACCTGGCAGTGGGCGCCCTTCCTCGGAGTCACCTAGTGCAG”, 4640 fluorescence intensity (a.u.).
For the sequence “TGCGCCACAGTGAACCCGACAGCTGGACAACCGGACACCCCGGAGTCACCTAGTGCAG”, the binding signal was 4330 fluorescence intensity (a.u.).
In the case of “GTCACCGTGACTGGCGTTGCCAAACTAGCGTGAACAAAAGCGGAGTCACCTAGTGCAG”, the binding signal is 23400 fluorescence intensity (a.u.).
Next, “GCCGGTGTGGTCGATGCCGACGATGCTGCCGTCGTTCCTGCGGAGTCACCTAGTGCAG”: 3700 fluorescence intensity (a.u.).
Take “ACGCCGACACGACGTCCTCTCTCCTTTCGCCTCCTCATCCCGGAGTCACCTAGTGCAG”: the binding signal was 3940 fluorescence intensity (a.u.).
In the case of “AATCTTCAAACTTTATTTGGAACGGCCCTTAGGCTCTTAGCGGAGTCACCTAGTGCAG” it was 13800 fluorescence intensity (a.u.).
Take “CACCAGTATCGTGCAAAACACGTCCCCATCCAACTCGCGGCGGAGTCACCTAGTGCAG”: the binding signal is 4100 fluorescence intensity (a.u.).
In the case of “CAGTTGACCGCCACGTAGAACCTGTTCCTCCAGCTCACCACGGAGTCACCTAGTGCAG” it was 9340 fluorescence intensity (a.u.).
For “TCTTCCAAATGAACTGGCAATATACTTGTACACGTTCTGTCGGAGTCACCTAGTGCAG”, the binding signal was 3190 fluorescence intensity (a.u.).
As to “TAATATGTATAAATTTGGTCTCTACTTTATCCTTCAATTTCGGAGTCACCTAGTGCAG”, the binding signal is 6170 fluorescence intensity (a.u.).
As for “TCAGAAAGGTGAGATCGATGCCACGCATTCATGCAGACACCGGAGTCACCTAGTGCAG”, the binding signal is 6990 fluorescence intensity (a.u.).
Consider “AATATAATGTTACTGCATGCATGTATATGACGTTACTGTACGGAGTCACCTAGTGCAG”, for which the binding signal was 3520 fluorescence intensity (a.u.).
Next, “GGGAGAAGTCCATGACCATGCGTCTGCACTCTACAGTACTCGGAGTCACCTAGTGCAG”: 3830 fluorescence intensity (a.u.); “GAGGCAAGGAAAGGAAGGAAGCTAGCACGCACATATCCAGCGGAGTCACCTAGTGCAG”: 3300 fluorescence intensity (a.u.); “TAGGAGTCATATGCCACGTGCAGGTTTCTTGAGGCGAGAACGGAGTCACCTAGTGCAG”: 8320 fluorescence intensity (a.u.).
In the case of “GCCGATGACGACAGCTCCTCCTCCACCACAACGACAACCTCGGAGTCACCTAGTGCAG” it was 5930 fluorescence intensity (a.u.); in that of “CCGCTGCCGCGTCGTGTACGTGTGTATATACGCCGCGCCGCGGAGTCACCTAGTGCAG”, 3980 fluorescence intensity (a.u.); in that of “CGGAACCTTCGCCTTCGACGTCATACAATGGGAGAAGGCGCGGAGTCACCTAGTGCAG”, 4060 fluorescence intensity (a.u.).
Next, “AGGAAGCGCGATGAAGCAGAGTGCATGACGGGGAGTAACCCGGAGTCACCTAGTGCAG”: 4180 fluorescence intensity (a.u.); “CTACTCATTGGTATTGATATGTCTGGATGACTGGATGGATCGGAGTCACCTAGTGCAG”: 4320 fluorescence intensity (a.u.); “TGCCCCATCCCAGCCCAAGCCCACACGTGACGTAGTGGGCCGGAGTCACCTAGTGCAG”: 5070 fluorescence intensity (a.u.).
On to “CTAGTAATTTGGTGTGGGATTTGTTGTTTACTTGTTTTCACGGAGTCACCTAGTGCAG”, for which the binding signal was 3420 fluorescence intensity (a.u.).
In the case of “CAATAATACCACACGTGGGCAGTGGGCTGGGATGCTTGTGCGGAGTCACCTAGTGCAG”, the binding signal was 4830 fluorescence intensity (a.u.).
As for “ATGGCGCAGAGACATGACACATCACCGGTCAACACACCGTCGGAGTCACCTAGTGCAG”, the binding signal was 7070 fluorescence intensity (a.u.).
In the case of “CACCGCGTTCACCCGCCGCCGCCGCCTCGCCCTTCCGCCACGGAGTCACCTAGTGCAG” it was 3270 fluorescence intensity (a.u.).
In the case of “CTCTAACCCAATGCCACCACATCCGCGCCTCCCTAGCCGACGGAGTCACCTAGTGCAG” it was 3880 fluorescence intensity (a.u.).
Turning to “GTATTTCCTCCGTTTCACAATGTAAGACTTTCTAACATTGCGGAGTCACCTAGTGCAG”, the binding signal was 26600 fluorescence intensity (a.u.).
For the sequence “GCAGACGACGATCTGAATTTCTGATTACAGCTGTACTACGCGGAGTCACCTAGTGCAG”, the binding signal was 3320 fluorescence intensity (a.u.).
In the case of “CTGCACACAACGCGCACGTCATGATTGGCACTAGTACACGCGGAGTCACCTAGTGCAG” it was 5510 fluorescence intensity (a.u.).
